In paper PMC9845910:
No constants are given. Whether binding was seen depends on the method and setting. In cells and extracts the contact can be indirect. These calls come from enrichment with a bait or labelling near it, and not all partners need be listed. Where a sequence is shown, tags or fusion partners need not be part of it.

Molecular target: T1, GFP-Tht1 (twin horsetails protein 1, meiotic nuclear fusion protein) (S. pombe) (UniProt Q09684)
T1 sequence (chain, S-palmitoylated at cysteine 65 and 78 (MALDI MS/MS of the pulled-down protein)): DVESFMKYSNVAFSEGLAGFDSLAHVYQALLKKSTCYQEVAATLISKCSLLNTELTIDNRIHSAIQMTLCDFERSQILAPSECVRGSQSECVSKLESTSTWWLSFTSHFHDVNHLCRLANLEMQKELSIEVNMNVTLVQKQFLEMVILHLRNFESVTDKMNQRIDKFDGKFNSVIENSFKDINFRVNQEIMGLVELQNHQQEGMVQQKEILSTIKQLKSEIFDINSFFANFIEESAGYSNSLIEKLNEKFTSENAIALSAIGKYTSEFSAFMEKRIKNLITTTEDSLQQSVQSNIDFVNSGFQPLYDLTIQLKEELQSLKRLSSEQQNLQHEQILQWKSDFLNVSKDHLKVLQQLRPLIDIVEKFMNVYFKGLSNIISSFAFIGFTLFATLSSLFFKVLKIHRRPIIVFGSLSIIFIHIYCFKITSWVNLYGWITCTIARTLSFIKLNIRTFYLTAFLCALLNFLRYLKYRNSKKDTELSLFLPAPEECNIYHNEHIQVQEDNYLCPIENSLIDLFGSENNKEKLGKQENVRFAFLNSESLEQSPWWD
Experiment: affinity purification with mass spectrometry; GFP-Trap pull-down of GFP-Tht1 from S. pombe lysate; SDS-PAGE, SYPRO Ruby staining, bands excised, trypsin, MS identification

binding: binds
B1: Sey1, ER fusion GTPase (as found by mass spectrometry in the GFP-Tht1 pull-down) (protein, UniProt Q9UTE0 1-762)
chain: MSTASNRVSTQIVDEHKQFNNELPKFMQSVGLLDAGFNYHVVAVLGSQSTGKSTLLNNLFGTSFSVMDASKRQQTTKGIWLSKANNSPILVMDVEGTDGRERGEDQDFERKSALFSISTSEVIIVNMWENQVGLYQGSNMALLKTVLEVNLQLFHNKKERCLLQFVIRDFLGNTSMENLADTIMTDLNNIWASLSKPEGFENSVINDFFDVGFTGLPHKILCSDAFSEAVDSLRERFVDNNNSDYIFNVSYHKKIPADGFSLYTREIWDTIENNKDLDLPTQQQLLAQYRCDEIITEVMEPFSTACTILQKEFLPGNLCKDLPTKLLNMFETVIEAYDRQASRYNVHIYQKKKQELIASVDSHLYVFFQAQLNALHKELIKSFFDASNEFPSDTPFKESSSIKINELVNKMREEGESLSLPHVHWDVDPFILKLSEELTQNSETLCKEKLKEKLEELFTGFEFEVSEAVEVAFQKLSHNVWDTLLNEFLAAQNTTIEKIKNIVPFYVDIDDTKTTEEYIINFKKNSWLFFRKKIDSEMSEVLLQQRLRVYFEELFRYDSDGMPKLWKKSGTIDRDYRESLTKTLDLINVLASIKVSDGNYPDLNVDIKTLEPEYTSPASFFTILNRRRVSDISVNFKRSADLIFMDCKRSVINTTTRIPPYFWVLLIVLGWNEFMAILRNPFVFMILMFGGTVVYGLYISGLIWPAKMVLERATNNLVDLATDRFSNTYQEQVQQRAMQRTEKSGSPVASADDAEAEKTALS
